The filed quantity is “Percent Effect” (%). The record does not define 0% and 100%; most values in the screen are far below 50% and negative numbers occur (in some assays of this library far below -100). This is an unselected part of the compounds tested. Two or more numbers in one place are separate tests of the same structure; such repeats can differ widely.

Mtb cholesterol medium: 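Whole-cell growth test on Mycobacterium tuberculosis, read after 4 days in a medium based on cholesterol and the lipid DPPC; the read-out is not stated. Concentration: 50 µM. Higher reads as more growth inhibition (inferred: compounds with an IC50 in retests scored well above the rest). Size under these conditions: about 69,000 compounds, about 370 of them at 50% or above in at least one test.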
Mtb glucose medium: 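Phenotypic screen: M. tuberculosis growth, glucose 7H9 medium, 3 days; the read-out is not stated. Compounds at 50 µM. The record gives no direction; compounds that gave an IC50 in retests scored well above the rest, so higher reads as more growth inhibition. About 69,000 compounds were tested under these conditions; 1.1% (about 760) showed 50% or more at least once.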

| SMILES | Mtb cholesterol medium | Mtb glucose medium |
|---|---|---|
| `CCc1ccc(CN(CCN(C)C)Cc2ccc(C)s2)nc1` | 6.641 | 26.82 |
| `CCc1csc(CNc2cc(C)nc(-c3cccnc3)n2)n1` | -12.94 | 6.494 |
| `CC(=O)N1CCC(NC(=O)c2cc(Cl)ccc2-n2cnnn2)CC1` | -9.145 | 6.139 |
| `Cc1ccc(N2CCCC(NC(=O)Cc3csc(C)n3)C2=O)cc1` (stereo unspecified) | -8.655 | 5.702 |
| `CN(Cc1cc2cc(F)ccc2[nH]1)C(=O)C1CC(=O)N(C(C)(C)C)C1` (stereo unspecified) | -1.025 | 6.326 |
| `[H][C@]12CC[C@]([H])(CN(c3nccc(OC)n3)C1)N(CC1CC1)C2` | 12.21 | 36.06 |
| `CS(=O)(=O)c1cncnc1C1CCCN(C(=O)Nc2ccc(F)cc2)C1` (stereo unspecified) | -2.854 & 4.75 | 3.567 |
| `CC1CCN(CCNC(=O)c2ccn(-c3ccc(F)cc3)n2)CC1` | -0.6351 | 11.48 |
| `c1cnn(CCNCc2cnc(N3CCOCC3)nc2)c1` | 3.149 | 10.68 |
| `CN(C)C(=O)c1ccc(C2CCCN2C(=O)CCC2=NNC(=O)CC2)s1` (stereo unspecified) | 19.11 | -0.2858 & -0.1443 |
| `Cc1cnn(CC2CCCN2C(=O)Cc2ccc(C)nc2)c1` (stereo unspecified) | -13.49 | -9.365 |
| `COc1cc2c(cc1CN1CCC3(CCCN(C)C3=O)C1)OCCO2` (stereo unspecified) | -2.977 | 24.39 & -0.9701 |
| `Cn1cc(-c2nc(CN3CCCCC3Cn3cncn3)cs2)cn1` (stereo unspecified) | -17.51 | -16.62 |
| `COc1cccc2c1ccn2CC(=O)Nc1nc[nH]n1` | 21.24 | 36.99 |
| `[H][C@]12CN(C)C(=O)[C@@]1([H])CN(C(=O)C1CC=CC1)C2` | -13.62 & -2.286 | 0.4493 & -18.51 |
| `Cc1nsc(N2CCN(C(=O)Nc3cccc(F)c3)CC2)n1` | 13.31 | 22.11 |
| `O=C(O)C(F)(F)F.[H][C@]12CCC[C@@H](CNc3ccccn3)[C@@]1([H])CN(Cc1nccs1)C2` | -20.75 | -19.89 |
| `CN(Cc1csc(-c2cccs2)n1)Cc1ncccc1C(=O)O` | -3.854 | 1.228 & -16.5 |
| `COC(C)c1nc(CN2CCNCC2)cs1` (stereo unspecified) | -22.43 & -6.855 | 21.05 |
| `O=C(Cc1ccc(F)cc1Cl)N1CC[C@H](CO)[C@@H](O)C1` | -9.839 | -46.83 |
| `O=C(CCc1ccncc1)Nc1ccc(OCC2CCOCC2)cc1` | -0.7258 | -13.64 |
| `CCC(=O)Nc1ccc(C(C)Nc2nc3c(cnn3C)c(=O)[nH]2)cc1` (stereo unspecified) | -11.54 | -16.16 |
| `O=C(CCc1ccsc1)N1CCC(n2cc(CO)nn2)CC1` | 4.276 | 22.4 |
| `CC(=O)N1CCN(C(=O)NCc2ccccc2Cn2cncn2)CC1` | 2.713 | -14.3 & 3.6 |
| `CC(C)(C)C(=O)CN1CCc2ccccc2NCCC1=O` | -9.259 | 15.39 |
| `OC(CNCCn1cccn1)c1cccc(F)c1` (stereo unspecified) | -13.58 | -22.37 |
| `O=C(COCc1ccccc1)N1CCCn2cncc2C1` | -16.1 | -33.04 |
| `[H][C@]12CCN(C(=O)NC)CC[C@@]1([H])S(=O)(=O)N(Cc1cccnc1)C2` | -21.61 | -5.329 |
| `Cc1ncc2c(n1)CN(Cc1noc(C3CC3)n1)CC2` | -0.09337 | 0.006217 |
| `Cc1nccc(N2CCCC(C)(c3[nH]ncc3C(N)=O)C2)n1` (stereo unspecified) | -10.94 | 4.306 |
| `COCC(c1cccc(C(F)(F)F)c1)N(C)C(=O)c1ccco1` (stereo unspecified) | 10.85 | 26.28 |
| `CCOC(=O)CC1CCCCN1C(=O)c1cnc(C)cn1` (stereo unspecified) | -21.03 | -17.81 |
| `COc1ccccc1OCC(=O)NCC(C)(O)C1CC1` (stereo unspecified) | 0.2397 | 20.54 |
| `CCc1cc(=O)[nH]c(-c2ccc(NC(C)CN3CCOCC3)nc2)n1` (stereo unspecified) | -3.214 | 12.09 |
| `FC1(F)CCNCC12CCN(c1ccccn1)C2` (stereo unspecified) | -28.06 | -21.93 & -7.063 |
| `CC(C)(C)OC(=O)N1CSC[C@@H]1C(=O)NCc1cccc(C#N)c1` | -8.827 | 2.285 & -8.585 |
| `O=C(O)C(F)(F)F.O=C(O)C(F)(F)F.[H][C@@]12CN(Cc3cc[nH]n3)C[C@]1([H])OCCN2C(C)C` | -16.13 | -5.292 |
| `Fc1cccc(CN2CCC(c3n[nH]c4ncccc34)CC2)c1F` | 6.453 | 8.114 |
| `CCOc1ccc(C2CC(=O)NCc3nc(N)sc32)cc1CO` (stereo unspecified) | -3.284 | 13.84 |
| `Cc1ccccc1OCCC(=O)OC(C)C(=O)Nc1sccc1C(N)=O` (stereo unspecified) | 0.4344 | 15.66 |
| `Cc1nc(CN2CCN(c3ncnc4ccccc34)CC2)no1` | -4.227 | 15.29 & -12.27 |
| `Cc1nc(C)c(CC(=O)NCc2ccc(F)cc2F)s1` | 0.03681 | 2.032 & 0.95 |
| `CCOc1ccnc(N2CCN(C(=O)CCc3cnn(C)c3)CC2)n1` | -4.962 | -0.9682 |
| `COc1cccc(CCNC(=O)CN2CCN(C)CC2C)c1` (stereo unspecified) | -28.83 | -32.89 |
| `O=C(Nc1nc(-c2ccccc2)ns1)N1CCC(CO)CC1` | 5.157 | 8.866 |
| `CN(Cc1ccc([S+](C)[O-])cc1)c1ccccn1` (stereo unspecified) | 9.182 | -8.794 |
| `COCCC(=O)N1CCC2(COCc3cnc(-c4ccccc4)nc32)C1` (stereo unspecified) | -5.23 | 12.2 |
| `Cc1cc(NCC(=O)N(C)C(C)c2cccs2)c(C(N)=O)cc1F` (stereo unspecified) | -5.841 | 7.269 |
| `O=C(NC1CCC1)c1cccc(S(=O)(=O)NCc2nc(C3CC3)no2)c1` | -0.6489 | -11.79 |
| `CN1CCN(C(=O)c2cc(C#N)cn2C)c2ccccc2C1` | -25.18 & -9.953 | 25.38 |

Repeated from the top, 3 entries:

SMILES	Mtb cholesterol medium	Mtb glucose medium
CCc1ccc(CN(CCN(C)C)Cc2ccc(C)s2)nc1	6.641	26.82
CCc1csc(CNc2cc(C)nc(-c3cccnc3)n2)n1	-12.94	6.494
CC(=O)N1CCC(NC(=O)c2cc(Cl)ccc2-n2cnnn2)CC1	-9.145	6.139

The values are deposited in ChEMBL (CHEMBL3988442, “University of Dundee, Small-Polar-MMV Screening Library” (2021)).